{"source": "PubChem BioAssay AID1688", "about": "(National Center for Advancing Translational Sciences (NCATS), 2009)", "note": "Hit rate of the full screen: of about 220,000 compounds, about 2,400 (1.1%) were called active. The shares of active, inactive and inconclusive entries below differ from those in the screen. Calls follow the shape of the dose curve; as a rule, active = well fitted inhibition curve with a large enough effect; inconclusive = small, poorly fitted or top-dose-only effect, or effect the other way; inactive = no such curve, though single readings can be large or run the other way. Potencies beside an inconclusive call are fits to weak or partial responses and may not hold up. % is scaled to controls: 0 for no effect and ±100 for the full control effect; potency is read from the fitted curve at half-maximal effect.", "data": [{"test": "qHTS Multiplex Assay to Identify Dual Action Probes in a Cell Model of Huntington: Aggregate Formation (GFP); also: nearly all actives have a fitted effect of over 60% in size", "details": "PC12 HttQ103-GFP aggregates, Acumen cytometry, 40 h; activity change, negative = inhibition: at 46.1 µM (top of the series) unless noted", "outline": "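Inducible Q103 Huntingtin exon 1–GFP PC12 line, 1500 cells/well in phenol red free DMEM with 5% equine and 5% calf serum. Tebufenozide 100 nM induced expression; compounds titrated; aggregates quantified by cytometry.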", "values": [{"smiles": "Cc1cccc(NS(=O)(=O)c2ccc(NC(=O)CN(c3cc([N+](=O)[O-])ccc3C)S(C)(=O)=O)cc2)c1", "Potency": "inconclusive: 35.5 µM [inhibitor, single point]"}, {"smiles": "CC1(C)Cc2c(C#N)c(N3CCOCC3)nc(-c3ccccc3)c2CO1", "Potency": "inconclusive: 35.5 µM [inhibitor, partial curve, poor fit]"}, {"smiles": "Cc1nn(Cc2ccccc2)c(C)c1NC(=O)c1cc(-c2cccs2)on1", "Potency": "inconclusive: 25.1 µM [inhibitor, single point]"}, {"smiles": "CCCn1c2ccccc2c2nnc(SCC(=O)Nc3ncccn3)nc21", "activity change, negative = inhibition": "inactive: -9.99%"}, {"smiles": "COc1cccc(NC(=S)/C(=C(\\[O-])c2cc(C)n(-c3ccccc3F)c2C)[n+]2ccc(N(C)C)cc2)c1", "Potency": "active: 12.6 µM"}, {"smiles": "NS(=O)(=O)c1ccc(N2N=C(c3ccccc3)CC2c2cccc(F)c2)cc1", "note": "(stereo unspecified)", "Potency": "inconclusive: 35.5 µM [inhibitor, single point]"}, {"smiles": "CCNc1sc(C(=O)c2cccs2)c(N)c1C#N", "activity change, negative = inhibition": "inactive: -7.21%"}, {"smiles": "O=C(CNc1ccccc1)Nc1ccc(F)cc1", "activity change, negative = inhibition": "inactive: 1.32%"}, {"smiles": "COc1ccc(C(=O)N2CCN(Cc3ccc4c(c3)OCO4)CC2)cc1[N+](=O)[O-]", "Potency": "inconclusive: 11.2 µM [activator, partial curve, poor fit]"}, {"smiles": "Cc1cccc(OCC(=O)Nc2ccc(N3CCN(C(=O)c4ccccc4)CC3)cc2)c1", "Potency": "active: 12.6 µM"}, {"smiles": "Brc1cc(Br)c2ncnc(N3CCCCC3)c2c1", "Potency": "active: 11.2 µM"}, {"smiles": "S=C(NCc1ccco1)Nc1ccc(Oc2ccccc2)cc1", "Potency": "inconclusive: 35.5 µM [inhibitor, single point]"}, {"smiles": "COC(=O)c1ccc(OC(=O)C2CC(=O)N(c3cccc(C)c3)C2)cc1", "note": "(stereo unspecified)", "activity change, negative = inhibition": "inactive: -9.11%"}, {"smiles": "CCOc1cccc(=O)c2c(C)n(-c3ccc(C(=O)O)cc3)c(C)c12", "activity change, negative = inhibition": "inactive: 27.1% [at 9.22 µM]"}, {"smiles": "COC(=O)c1ccc(C)c(NC(=O)CCSc2ccccc2)c1", "activity change, negative = inhibition": "inactive: 7.15%"}, {"smiles": "CC1(C)CC(=O)C(=CN2CCOCC2)C(=O)C1", "activity change, negative = inhibition": "inactive: 2.08%"}, {"smiles": "CN(CCO)c1c2c(nc3cc(-c4cccc(F)c4)nn13)CCCC2", "Potency": "inconclusive: 35.5 µM [inhibitor, single point]"}, {"smiles": "CC(C)(C)OC(=O)NCCCC[C@H](NC(=O)c1nc[nH]c1C(=O)NC(c1ccccc1)c1ccccc1)C(=O)OC(C)(C)C", "activity change, negative = inhibition": "inactive: 1.19% [at 9.22 µM]"}, {"smiles": "COC(=O)c1cc(=O)nc2sc3cc(OC)ccc3n12", "activity change, negative = inhibition": "inactive: -11.7%"}, {"smiles": "O=C(O)CSC(=S)N1CCCCC1", "Potency": "inconclusive: 1.41 µM [inhibitor, partial curve]"}, {"smiles": "CCCOc1ccc(C(=O)c2nc3c(n2O)CCCC3)cc1", "Potency": "inconclusive: 12.6 µM [inhibitor, single point]"}, {"smiles": "CCCCCCNS(=O)(=O)c1ccc(Cl)s1", "Potency": "inconclusive: 3.98 µM [inhibitor, partial curve]"}, {"smiles": "Cc1ccc(S(=O)(=O)NNC(=S)Nc2ccc(Cl)cc2)cc1", "activity change, negative = inhibition": "inactive: -14.7% [at 9.22 µM]"}, {"smiles": "COc1ccc(C(=O)N/N=C/c2cccc3cccnc23)cc1", "Potency": "inconclusive: 12.6 µM [inhibitor, single point]"}, {"smiles": "Cc1nn(-c2ccccc2)c(Cl)c1CN(C(=O)CCl)c1ccc(Cl)cc1", "Potency": "active: 25.1 µM"}, {"smiles": "O=C(CCCOc1ccc(Cl)cc1)N1CCOCC1", "activity change, negative = inhibition": "inactive: 13.6%"}, {"smiles": "COC(=O)C1=C(C)OC(N)=C(C#N)C1c1c(C)nn(-c2ccccc2)c1Cl", "note": "(stereo unspecified)", "activity change, negative = inhibition": "inactive: 9.69%"}, {"smiles": "CC(C)CCOc1ncnc2c1sc1nc3c(cc12)CSC(C)(C)C3", "activity change, negative = inhibition": "inactive: -3.06%"}, {"smiles": "CCOc1cc(N2CCOCC2)c(OCC)cc1NC(=O)COc1cccc2cccnc12", "Potency": "active: 3.55 µM"}, {"smiles": "O=C(CN1CCC(C(=O)c2ccc(F)cc2)CC1)Nc1ccc(F)cc1", "Potency": "inconclusive: 35.5 µM [inhibitor, single point]"}, {"smiles": "CCN(CC)c1ccc([N+](=O)[O-])cc1C(=O)O", "Potency": "inconclusive: 5.62 µM [inhibitor, single point]"}, {"smiles": "N#Cc1cccc(NC(=O)COC(=O)c2ccccc2C(=O)c2ccc(Cl)c([N+](=O)[O-])c2)c1", "Potency": "inconclusive: 0.562 µM [inhibitor, partial curve, poor fit]"}, {"smiles": "O=C(Nc1cccc(-c2csc(-c3ccccc3)n2)c1)c1cccs1", "Potency": "inconclusive: 31.6 µM [inhibitor, single point]"}, {"smiles": "CC(=O)N1CCn2c3c(c(=O)c4cc(C)ccc42)CCC31", "note": "(stereo unspecified)", "activity change, negative = inhibition": "inactive: -6.42%"}, {"smiles": "Cc1cccc(-n2c(SCC(=O)N3CC(=O)Nc4ccccc43)nc3ccccc3c2=O)c1C", "Potency": "inconclusive: 0.794 µM [activator, single point]"}, {"smiles": "CNCCCOc1ccc(C(C)(C)c2ccccc2)cc1", "Potency": "inconclusive: 0.562 µM [activator, full curve, poor fit]"}, {"smiles": "O=c1oc2ccccc2c(NCc2ccccc2F)c1[N+](=O)[O-]", "activity change, negative = inhibition": "inactive: -6.21%"}, {"smiles": "O=C(Cc1cccs1)N1CCN(S(=O)(=O)c2ccc(Br)cc2)CC1", "activity change, negative = inhibition": "inactive: 16.5%"}, {"smiles": "NC(=O)C1(N2CCCCC2)CCN(C(=O)NC23CC4CC(CC(C4)C2)C3)CC1", "Potency": "inconclusive: 0.562 µM [inhibitor, full curve]"}, {"smiles": "COc1cccc(/C=N\\NC(=O)c2ccc(Cn3cc(Br)c([N+](=O)[O-])n3)o2)c1O", "Potency": "inconclusive: 2 µM [inhibitor, single point]"}, {"smiles": "Cc1cccc(NC(=O)CCN2C(=O)C3C4C=CC(C4)C3C2=O)c1", "note": "(stereo unspecified)", "activity change, negative = inhibition": "inactive: 21.1%"}, {"smiles": "Cc1ccc(OCC(=O)Nc2ccc(N(C)C)cc2)cc1", "Potency": "inconclusive: 12.6 µM [activator, partial curve]"}, {"smiles": "CC1=C(C(=O)N(C)C)C(c2ccc(C)s2)NC(=S)N1", "note": "(stereo unspecified)", "activity change, negative = inhibition": "inactive: 13.7%"}, {"smiles": "CC(C)Cn1cc(C(=O)N2CCOCC2)c2c3ccccc3n(C)c2c1=O", "activity change, negative = inhibition": "inactive: -10%"}, {"smiles": "CC(=O)c1cc(-c2ccccc2)n(CC(=O)NC2CCCCC2)c1C", "Potency": "inconclusive: 0.562 µM [activator, partial curve, poor fit]"}, {"smiles": "CC(C)c1ccc(NC(=O)c2cc(S(=O)(=O)NCC3COc4ccccc4O3)ccc2F)cc1", "note": "(stereo unspecified)", "Potency": "inconclusive: 35.5 µM [inhibitor, single point]"}, {"smiles": "O=C(CN(CC1CCCO1)C(=O)CNS(=O)(=O)c1ccccc1)NCc1ccco1", "note": "(stereo unspecified)", "activity change, negative = inhibition": "inactive: 8.97% [at 9.22 µM]"}, {"smiles": "Cc1ccc(S(=O)(=O)NCCSc2nnnn2-c2cc(C)ccc2C)cc1", "Potency": "inconclusive: 28.2 µM [inhibitor, single point]"}, {"smiles": "COC(=O)C1=C(C)N(Cc2ccc(C)cc2)C(=O)/C1=C\\c1ccc(O)c(OC)c1", "Potency": "inconclusive: 14.1 µM [activator, single point]"}, {"smiles": "CC(=O)c1ccc(-n2cc(-c3ccc(C(C)(C)C)cc3)[n+]3c2SCCC3)cc1", "Potency": "active: 10 µM"}, {"smiles": "O=C(COc1ccc(Cl)cc1)NCc1nnc(SCC(=O)N2CCCCCC2)o1", "activity change, negative = inhibition": "inactive: 18.1%"}, {"smiles": "[O-]C1=N/[N+](=C/c2ccccc2)CC1", "activity change, negative = inhibition": "inactive: -0.443% [at 9.22 µM]"}, {"smiles": "CN(CC(=O)Nc1cccc(F)c1)CC(=O)Nc1ccccc1[N+](=O)[O-]", "Potency": "inconclusive: 31.6 µM [inhibitor, partial curve]"}, {"smiles": "Oc1c(C(c2ccccn2)N2CCCCC2)cc(Cl)c2cccnc12", "note": "(stereo unspecified)", "Potency": "active: 25.1 µM"}, {"smiles": "CCCCC(=O)NCCc1cc2ccc(OC)cc2[nH]c1=O", "activity change, negative = inhibition": "inactive: -0.164%"}, {"smiles": "Oc1ccc(O)c(-c2cnns2)c1", "Potency": "inconclusive: 15.8 µM [inhibitor, single point]"}, {"smiles": "CC(Oc1ccc(Cl)cc1Cl)C(=O)NCCC1=CCCCC1", "note": "(stereo unspecified)", "activity change, negative = inhibition": "inactive: -22%"}, {"smiles": "N#Cc1c(N)n[nH]c1-c1cc2c([nH]1)CCCC2", "Potency": "inconclusive: 10 µM [inhibitor, partial curve]"}, {"smiles": "O=C(COc1nnnc2ccccc12)N1CCCc2ccccc21", "Potency": "active: 4.47 µM"}, {"smiles": "O=C(NCCc1ccc2c(c1)OCCO2)c1cc(F)cc(F)c1", "Potency": "inconclusive: 1.26 µM [inhibitor, single point]"}, {"smiles": "COc1ccc(Oc2nc3ccccc3n(C)c2=O)cc1", "Potency": "inconclusive: 1.26 µM [activator, single point]"}, {"smiles": "COC(=O)NC1(C(F)(F)F)C(=O)NC(C)=C1C(=O)OC", "note": "(stereo unspecified)", "activity change, negative = inhibition": "inactive: 19.2%"}, {"smiles": "CC(=O)Nc1nc2ccccc2n1Cc1ccc(C)cc1", "Potency": "inconclusive: 22.4 µM [inhibitor, single point]"}, {"smiles": "O=C(c1cccs1)N1CCc2ccccc21", "activity change, negative = inhibition": "inactive: 4.41%"}, {"smiles": "Cc1cc(NC(=O)CSc2nc3c(sc4ccccc43)c(=O)n2CCCN2CCOCC2)n[nH]1", "Potency": "inconclusive: 2 µM [activator, partial curve]"}, {"smiles": "O=C(Cc1ccc(Cl)cc1)N1CCN(C(=O)c2ccco2)CC1", "activity change, negative = inhibition": "inactive: 3.57%"}, {"smiles": "CC(C)(C)OC(=O)COc1cc(OCC(=O)OC(C)(C)C)c2c(=O)cc(-c3ccccc3)oc2c1", "activity change, negative = inhibition": "inactive: 6.99%"}, {"smiles": "O=C(NCc1ccc(Cl)cc1)C(=O)NCC(c1cccnc1)N1CCN(c2ccc(F)cc2)CC1", "note": "(stereo unspecified)", "Potency": "inconclusive: 20 µM [inhibitor, partial curve, poor fit]"}, {"smiles": "CC(=O)N(C[C@@H](C)C(=O)O)c1c(I)cc(I)c(N)c1I", "activity change, negative = inhibition": "inactive: 6.7% [at 20.6 µM]"}, {"smiles": "COc1ccc(N(CC(=O)Nc2ccc(F)c(Cl)c2)S(=O)(=O)c2c(C)noc2C)cc1", "Potency": "inconclusive: 35.5 µM [inhibitor, single point]"}, {"smiles": "O=[N+]([O-])c1ccc(O)c(/C=N/Nc2ccccn2)c1", "Potency": "inconclusive: 1 µM [inhibitor, full curve]"}, {"smiles": "Cc1ccc(C2=NOC(=O)/C2=C\\C=C\\c2ccccc2)cc1", "activity change, negative = inhibition": "inactive: 25.4%"}, {"smiles": "CCn1cc(NC(=O)Nc2ccccc2C(=O)OC)c(C(N)=O)n1", "Potency": "inconclusive: 5.62 µM [inhibitor, single point]"}, {"smiles": "CN(C)c1cc[n+](Cc2c(Cl)cccc2Cl)cc1", "Potency": "active: 8.91 µM"}, {"smiles": "Cc1ccc(-c2nnc(Cc3ccc(Cl)cc3)o2)cc1", "activity change, negative = inhibition": "inactive: -32.9%"}, {"smiles": "COc1cc2[nH]c(=S)n(NC(=O)CC(C)C)c(=O)c2cc1OC", "Potency": "inconclusive: 0.562 µM [inhibitor, full curve, poor fit]"}]}]}
